Test system: Colo38, Colo38R, M21, M21R and TPF-10-741 cells
Assay: MTT dose titration of PDGFRα-I
Type: cell-based
Conditions: Homo sapiens; dose titration experiment, MTT assay, the 5 cell lines; read-out: IC50 doses
Experimental: MTT assay was carried out as reported elsewhere^2. […] All experiments were performed three independent times in triplicates.
A dose titration experiment established the dose of PDGFRα-I to be combined with vemurafenib in the 5 cell lines. […] The dose of 1.5 μM and 3 μM for sunitinib and the dose of 10 μM and 20 μM for imatinib were chosen to be tested in combination with vemurafenib for their effect on cell growth (FIG. 9) and survival (FIG. 10). […] Furthermore, PDGFRα-I synergized (p<0.05) with vemurafenib to overcome BRAF-I resistance, increasing the growth inhibition of Colo38R, M21R and TPF-10-741 cells.

Cc1ccc(NC(=O)c2ccc(CN3CCN(C)CC3)cc2)cc1Nc1nccc(-c2cccnc2)n1 [imatinib]
IC50: 15 µM

— patent publication US10220091B2, “Combination treatments with sonic hedgehog inhibitors” (The General Hospital Corporation, priority 2013, dated 2019)
